In test [1] the target is dmSMN(G206S)•Gemin2 (Drosophila melanogaster) (UniProt Q9VV74+Q9VVX0). Kind of test: SEC-MALS; Superdex 200 10/300 GL, 0.5 ml/min, room temperature (20°C), 50 mM HEPES-NaOH pH 7.5, 250 mM NaCl, 5 mM DTT; self-association of the SMN•G2 unit, (SMN•G2)n; both purified.
Test [2] has as its target T1, Schizosaccharomyces pombe Gemin2 (Schizosaccharomyces pombe) (UniProt P0CU08).
T1 sequence: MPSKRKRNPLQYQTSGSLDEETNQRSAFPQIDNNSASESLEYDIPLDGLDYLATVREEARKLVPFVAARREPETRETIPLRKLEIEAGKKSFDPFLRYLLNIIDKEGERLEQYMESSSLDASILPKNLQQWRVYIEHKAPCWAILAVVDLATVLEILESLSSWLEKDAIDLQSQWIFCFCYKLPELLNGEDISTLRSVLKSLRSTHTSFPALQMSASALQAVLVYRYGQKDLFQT
The test is described as follows: co-purification of co-expressed proteins; bacterial co-expression; human: Ni-NTA and chitin beads by the Mxe intein-His6 on Gemin2, then Superdex 200.

Test [3] addresses spSMN(Y136C)•Gemin2 (Schizosaccharomyces pombe) (UniProt Q09808+P0CU08). The test is described as follows: SEC-MALS; Superdex 200 10/300 GL, 0.5 ml/min, room temperature (20°C), 50 mM HEPES-NaOH pH 7.5, 250 mM NaCl, 5 mM DTT; self-association of the SMN•G2 unit, (SMN•G2)n; both purified.

No constants are given. Whether binding was seen depends on the method and setting. Some results given as binding are weak or reduced against the parent protein; the word gives no strength. For part of these data: Tags and fused reporters may be left off the sequences shown.

B1: dmSMN(G206S)•Gemin2 (complex, UniProt Q9VV74 1-226; Q9VVX0 1-245)
chain 1: MSDETNAAVWDDSLLVKTYDESVGLAREALARRLADSTNKREEENAAAAEEEAGEISATGGATSPEPVSFKVGDYARATYVDGVDYEGAVVSINEEKGTCVLRYLGYENEQEVLLVDLLPSWGKRVRREQFLIAKKDEDEQLSRPKASAGSHSKTPKSSRRSRISGGLVMPPMPPVPPMIVGQGDGAEQDFVAMLTAWYMSGYYTSLYQGKKEASTTSGKKKTPKK
chain 2: MQHEPEDQTFQLQALEICEPDSSFDPQKPPESGEEYLMHMFYERKRCPAVVTKRSSKIRNNTGNTTLEMLDNPELPPFKCLLPTPEWRDEQVKSFQAARSQVLVLRKELANNNYDQSGEPPLTSDQEKWKEFCRNQQPLLSTLLHLTQNDLELLLEMLSKWLQDPNTTVDLLHDVWLARWLYATLVCLHLPLEPHVFSTLRYIARTCIHLRNQLKEDEVQRAAPYNLLLTLTVQVFAQNDFKDYI
On to B1, for which, in test [1], the binding entry was “no binding”.

B2: Schizosaccharomyces pombe SMN (protein, UniProt Q09808 1-152)
chain: MDQSQKEVWDDSELRNAFETALHEFKKYHSIEAKGGVSDPDSRLDGEKLISAARTEESISKLEEGEQMINQQTETTLEGDTHIQQFADNKGLSDEKPETRAAETHQEFMEVPPPIRGLTYDETYKKLIMSWYYAGYYTGLAEGLAKSEQRKD
With B2, the binding result in test [2] is on record as “binds”.

B3: spSMN(Y136C)•Gemin2 (complex, UniProt Q09808 1-152; P0CU08 1-235)
chain 1: MDQSQKEVWDDSELRNAFETALHEFKKYHSIEAKGGVSDPDSRLDGEKLISAARTEESISKLEEGEQMINQQTETTLEGDTHIQQFADNKGLSDEKPETRAAETHQEFMEVPPPIRGLTYDETYKKLIMSWYYAGCYTGLAEGLAKSEQRKD
chain 2: MPSKRKRNPLQYQTSGSLDEETNQRSAFPQIDNNSASESLEYDIPLDGLDYLATVREEARKLVPFVAARREPETRETIPLRKLEIEAGKKSFDPFLRYLLNIIDKEGERLEQYMESSSLDASILPKNLQQWRVYIEHKAPCWAILAVVDLATVLEILESLSSWLEKDAIDLQSQWIFCFCYKLPELLNGEDISTLRSVLKSLRSTHTSFPALQMSASALQAVLVYRYGQKDLFQT
For B3, the binding entry in test [3] is reported as “no binding”.

The record behind these values is article PMC8287954.
